# Measurements reported in PubChem BioAssay AID504791 (Drosophila RNAi Screening Center, 2011).
# Test: 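Genes of the fly required for silencing by miRNA, siRNA or endo-siRNA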 (primary screen)
# Cells: Drosophila S2-derived reporter cells
# Reagent: long dsRNA against Drosophila genes, about 150-250 ng dsRNA per well (siRNA assay); about 80-120 ng (miRNA assay)
# Duration: about 5 days (siRNA assay); about 4 days (miRNA assay)
# Treatment: copper sulfate induction of reporters: 25 µM (siRNA assay); 200 mM stated (miRNA assay), 1-2 days before reading
# Measured: 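Dual luciferase assay: Renilla to firefly signal ratio in each well, scaled to the mean ratio of its plate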
# Rule for the call: 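First-pass picks had plate-scaled ratios over 1.5 for the siRNA assay, over 1.6 for the miRNA assay, or under 0.6; two distinct dsRNAs had to score alike on retest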
# The deposit covers about 23,000 reagents; this is a random part of those that have a named target and a result. Over the whole deposit, 199 (0.86%) are marked active. 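Plate-scaled ratios behind the calls are not deposited; printed light signals are raw; many rows marked increased or decreased are still called inactive.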 A number with no mark means an inactive call. Names joined by + are all predicted targets of the reagent. No sequences are given here. Not stated in the record: the direction of the score.
target gene,dsRNA,stable siRNA reporter change,miRNA reporter change,"stable assay Renilla, run 1 (luminescence)","stable assay firefly, run 1 (luminescence)"
Ance-5,DRSC04055,,,25890,1.08e6
CG14662,DRSC12248,,,8030,5.51e5
CG6051,DRSC15956,,,6279,3.34e5
CG42553,DRSC08356,,,5887,3.01e5
mago,DRSC04703,,,11686,6.42e5
CG15572,DRSC18060,,,5763,3.19e5
CG15760,DRSC19725,,,5167,5.31e5
hale,DRSC10882,,,8048,4.45e5
CG14855,DRSC14979,,,6236,3.27e5
CG30083,DRSC05572,,,7367,4.85e5
MagR,DRSC20092,,,4511,4.08e5
CG31650,DRSC03140,,,21707,2.24e5
CG34376,DRSC14695,,,5723,3.81e5
CG34376,DRSC14696,,,8339,4.05e5
CG34376,DRSC14701,,,8663,4.37e5
CG17928,DRSC02644,,,6731,4.27e5
Ppox,DRSC17033,,,7395,3.30e5
Spps,DRSC15856,,,6318,2.85e5
Spps,DRSC23206,,,4775,2.88e5
CG5188,DRSC02826,,,7384,3.82e5
CG32388,DRSC08861,,,5034,3.61e5
Daxx,DRSC03255,,,13244,1.71e6
Smyd4-4,DRSC05956,,,9037,4.30e5
CG8620,DRSC11020,,,5475,3.31e5
pirk,DRSC04269,,,8578,4.52e5
CG8135 + BBIP1,DRSC12739,,,5388,4.09e5
CG8135 + BBIP1,DRSC16384,,,6651,3.75e5
Or49b,DRSC07494,,,4683,2.56e5
CG30428,DRSC04041,,,6631,4.15e5
CG34292,DRSC13807,,,6000,3.46e5
CG15923,DRSC15129,,,10644,4.40e5
hfw,DRSC18506,,,6208,3.14e5
promL,DRSC08733,,,10604,4.25e5
CG12576,DRSC20621,,,6455,4.45e5
CG1690,DRSC06636,,,5559,3.86e5
SLIRP1 + anox,DRSC20542,,,8922,4.89e5
Rhau,DRSC03200,,,9411,7.98e5
CG31103,DRSC22324,,,9481,5.00e5
CG12374,DRSC06143,,,5008,2.83e5
PhKgamma,DRSC20268,,,8234,5.03e5
PolI,DRSC16267,,,8274,4.27e5
Actn,DRSC17724,,,8372,4.70e5
CG17782,DRSC15267,,,6647,2.84e5
CG17782,DRSC23227,,,4758,3.13e5
pea,DRSC07120,,,8030,3.89e5
CG12539,DRSC19470,,,5686,3.51e5

An excerpt from above, reduced to “stable assay firefly, run 1 (luminescence)”:
CG34376 [DRSC14701]	4.37e5
CG17928 [DRSC02644]	4.27e5
Ppox [DRSC17033]	3.30e5
Spps [DRSC15856]	2.85e5
Spps [DRSC23206]	2.88e5
CG5188 [DRSC02826]	3.82e5
CG32388 [DRSC08861]	3.61e5
Daxx [DRSC03255]	1.71e6
Smyd4-4 [DRSC05956]	4.30e5

Next entries:
target gene,dsRNA,stable siRNA reporter change,miRNA reporter change,"stable assay Renilla, run 1 (luminescence)","stable assay firefly, run 1 (luminescence)"
CG4770,DRSC15639,,,7818,4.06e5
U2A,DRSC06445,reporter ratio lowered past the hit cutoff (active),,5163,6.44e5
Ir87a,DRSC14836,,,6136,2.97e5
Cyp313b1,DRSC16629,,,6746,3.74e5
CG11095,DRSC19375,,,7747,5.20e5
Graf,DRSC20131,,,6798,2.93e5
Arf1,DRSC11606,,,7303,3.68e5
CG6204,DRSC15991,,,9160,4.09e5
CG12084,DRSC08247,,,10009,5.03e5
CG12084,DRSC26814,,reporter ratio lowered past the hit cutoff,,
CG2811,DRSC04318,,,7022,5.11e5
CG6231,DRSC15997,,,7267,2.96e5
CR42546,DRSC03711,,,6731,4.20e5
CG15676,DRSC04267,,,6791,4.23e5
CG32074,DRSC22246,,,9761,5.27e5
CG18179,DRSC10303,,,6144,3.44e5
SMC3,DRSC20227,,,4828,3.68e5
ord,DRSC04706,,,6451,4.10e5
CG14983,DRSC08441,,,5662,3.06e5
Gasp,DRSC12349,,,8506,4.69e5
CG18530,DRSC15341,,,6516,3.62e5
Lcp65Ac,DRSC11210,,,6983,5.89e5
Patj,DRSC08712,,,9074,3.51e5
CG32354,DRSC10763,,,8464,4.49e5
CG32354,DRSC10775,,,4964,4.10e5
CG32354,DRSC21919,,,10173,6.53e5
coro,DRSC05007,,,1.53e5,1.51e6
coro,DRSC21417,,,10685,5.70e5
fan,DRSC10930,,,5987,3.20e5
Zip88E,DRSC15562,,,8311,4.11e5
HisRS,DRSC19986,,,4919,4.50e5
CheA86a,DRSC12839,,,4151,4.25e5
Klp3A,DRSC18676,,,7574,4.80e5
Klp3A,DRSC21625,,,8336,3.69e5
CG10413,DRSC02052,,,26007,1.23e6
Fum2,DRSC18345,,,5419,3.25e5
CG14787,DRSC18606,,,7575,4.01e5
